Patent US9879050B2, “Substituted urea depsipeptide analogs as activators of the CLPP endopeptidase” (priority 2013, dated 2018)
For at least one compound, name, drawing or mass did not settle the structure.

Tested on: S. aureus USA 300 ΔClpP
Experiment: Minimal inhibitory concentration, microbroth dilution
Type: cell-based, Staphylococcus aureus
Conditions: ClpP inactivated strain
Protocol: Minimal inhibitory concentrations (“MICs”) were determined using the microbroth dilution method according to Clinical Laboratory Standards Institute (CLSI; National, C.F. C. L. S., Methods for Dilution Antimicrobial Susceptibility Tests for Bacteria Grow aerobically-Seventh Edition: Approved Standard M7-A7, CLSI, Wayne, Pa., USA, 2008) and were read by visual inspection. Two fold serial dilutions of test compound in 100 μL of the appropriate broth media were first prepared in 96-well round bottom microtiter plates (Nalgene Nunc International, Rochester, N.Y., USA). An equivalent volume (100 μL) of bacterial broth inocula containing approximately 10^5 bacterial cfu/mL was added to each well to give final concentrations of test compound starting at 200 μM. The plates were then incubated aerobically at 37° C. All strains were incubated overnight. After incubations, in all cases the MIC was recorded as the lowest concentration of drug that prevented bacterial growth. The bacterial strains for which MIC was determined as described in Table 4.

CN(C)[C@@H]1C(O)=C(C(N)=O)C(=O)[C@@]2(O)C(O)=C3C(=O)c4c(O)cccc4[C@@](C)(O)[C@H]3C[C@@H]12 [Tetracycline, tetracycline, reference compound]
Minimal Inhibitory Concentration S. aureus USA 300 ΔClpP: 0.1 µM
